{"source": "patent US20010053766A1", "about": "“Method of treating disorders of the eye” (priority 2000, published 2001)", "key": {"[1]": {"tested_on": "Human Schlemm's canal (SC) cell monolayers", "assay": "SC cells monolayer integrity assay in vitro (phase contrast, F-actin and focal adhesion staining)", "assay_type": "cell-based", "conditions": "for morphological effect on SC cell monolayer integrity: complete medium, 37 C", "experimental": "(§1) Human cadaver eye tissues were obtained from the National Disease Research Interchange (NDRI; Philadelphia, Pa.), and the SC cells were isolated following the techniques previously described (Stammer et al, Invest. Ophthalmol. Vis. Sci. 39:1804 (1998)). The cells were grown in Dulbecco's modified Eagle's medium with 10% fetal bovine serum, 2 mM L-glutamine, 100 U/ml penicillin G and 100 μg/ml streptomycine sulfate (all from GibcoBRL, Gaithersburg, Md.). The primary cultures of SC cells were used between the passages of three to six, throughout the experiments.\nTo evaluate the effect of RGD peptide on monolayer integrity, the SC cells were seeded on fibronectin-coated coverslips and grown for 10 days in complete medium. Before the experiment, the gaps in the confluent cells layer on coverslips were examined thoroughly. Further, the culture media was replaced with RGD peptide or control RGE peptide (200 μM)-containing complete medium and incubated at 37° C. in CO2 incubator. The changes in morphology (cell retraction, cell-cell attachments) were followed for 3 hrs. The induced morphological changes were monitored by phase contrast microscopy (Zeiss IM 35). For clear illustration of the specific and non-toxic effects of RGD peptide, the changes in SC cells monolayer integrity and reversibility were followed after treatment at higher concentration (1.0 mM) as compared to control RGE peptide. The coverslips were fixed with 3.7% formaldehyde and stained for F-actin and focal adhesions as described earlier (Lampugnani et al, J. Cell Biol. 112: 479-490 (1991)). The RGD-containing medium was removed with complete culture medium after three times washing and incubation was continued. Further, the reversibility of the gaps formation was followed."}, "porcine cadaver eyes": {"tested_on": "porcine cadaver eyes", "assay": "Outflow facility measurements, constant pressure perfusion of enucleated eyes", "conditions": "200 μM peptide perfusion, after 5 hrs, 15 mm Hg, n=7; mean ± S.E."}, "[2]": {"tested_on": "Human Schlemm's canal (SC) cell monolayers", "assay": "SC cell monolayer permeability barrier function (HRP diffusion on Transwells)", "assay_type": "cell-based", "conditions": "200 μM peptide, 1 hr, complete medium, n=7; mean ± S.E.", "experimental": "as §1\nTo correlate the specific effects of the RGD peptide compared to a control RGE peptide, the standard device was used to measure the monolayer permeability barrier function on Transwells cell culture chambers (fibronectin-coated polycarbonate filters, […] pore size, Costar Corp.) as described by Lampugnani et al (J. Cell Biol. 112: 479-490 (1991)). The diffusion of horseradish peroxidase (HRP) through SC cell monolayer was determined with and without RGD hexapeptide GRGDTP (Sigma, St. Louis, Mo.) or known control RGE hexapeptide GRGESP (GibcoBRL, Gaithersberg, Md.). […] Results were expressed as percent change in enzyme activity as compared to untreated controls. Values were obtained from three independent experiments and expressed as means±S.E. A paired t-test analysis was also performed with respect to untreated controls."}}, "note": "Entries after “also recorded” stand apart in the source; their conditions may differ. Not every detail of the peptide structures is certain; ends, links or a residue may be inferred. Ends that are not written are not given here.", "data": [{"substance": "GRGDTP [GRGDTP]", "values": [{"measurement": "morphological effect on SC cell monolayer integrity", "setting": "[1]; 200 μM peptide, up to 3 hrs", "result": "tiny discontinuities"}, {"measurement": "reversibility of hole formation after removal of peptide", "setting": "[1]; 1.0 mM peptide for 3 hrs, then peptide removed and incubation continued", "result": "reversible"}, {"measurement": "effect on focal adhesions (paxillin staining)", "setting": "[1]; 1.0 mM peptide, cells around the holes on monolayer, listed as RGD peptide", "result": "dispersed focal adhesions; also recorded: diffused focal adhesions"}, {"measurement": "morphological effect on SC cell monolayer integrity", "setting": "[1]; 1.0 mM peptide, 3 hrs", "result": "enlargement of gaps in SC cells monolayer and ended up with the appearance of discontinuous hole formation"}, {"measurement": "effect on actin filaments (F-actin staining)", "setting": "[1]; 1.0 mM peptide, listed as RGD peptide", "result": "did not affect; also recorded: did not appear to be altered"}, {"measurement": "increase in outflow facility", "setting": "porcine cadaver eyes", "result": "46%±11"}, {"measurement": "increase in SC cells monolayer permeability (HRP diffusion) as compared to untreated controls", "setting": "[2]", "result": "64%±12"}]}]}
